Results reported in the supplement of paper PMC12067093, “Discovery and optimisation of a covalent ligand for TRIM25 and its application to targeted protein ubiquitination” (Chemical Science, 2025).
The other results are listed elsewhere or left out.

Chains of the proteins cited; added tags and fusions are not shown. Lines headed by an entry give the natural chain unless they say otherwise; changes in a name come on top.
UniProt P30260, whole entry, looked up: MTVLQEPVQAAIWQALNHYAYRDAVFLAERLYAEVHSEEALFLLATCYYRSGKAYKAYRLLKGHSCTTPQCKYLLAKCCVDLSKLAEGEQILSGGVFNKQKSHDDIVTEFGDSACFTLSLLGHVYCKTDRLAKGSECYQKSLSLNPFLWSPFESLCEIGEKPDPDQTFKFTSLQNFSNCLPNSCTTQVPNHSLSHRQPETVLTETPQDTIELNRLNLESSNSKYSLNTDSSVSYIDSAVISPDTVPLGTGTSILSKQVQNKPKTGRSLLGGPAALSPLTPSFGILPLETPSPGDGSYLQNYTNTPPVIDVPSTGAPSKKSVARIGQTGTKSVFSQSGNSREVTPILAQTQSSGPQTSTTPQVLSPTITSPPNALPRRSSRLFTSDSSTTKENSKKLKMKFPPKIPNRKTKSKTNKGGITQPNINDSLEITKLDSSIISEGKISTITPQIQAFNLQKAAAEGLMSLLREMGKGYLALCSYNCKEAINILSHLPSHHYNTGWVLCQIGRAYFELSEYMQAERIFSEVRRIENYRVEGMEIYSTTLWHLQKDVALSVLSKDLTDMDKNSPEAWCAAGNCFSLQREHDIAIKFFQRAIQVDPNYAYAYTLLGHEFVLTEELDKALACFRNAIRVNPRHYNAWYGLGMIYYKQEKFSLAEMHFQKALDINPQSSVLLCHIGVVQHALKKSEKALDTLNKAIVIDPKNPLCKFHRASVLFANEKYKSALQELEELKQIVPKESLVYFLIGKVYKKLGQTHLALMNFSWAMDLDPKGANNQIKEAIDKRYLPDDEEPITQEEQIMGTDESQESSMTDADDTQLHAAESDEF
UniProt Q9NSP4: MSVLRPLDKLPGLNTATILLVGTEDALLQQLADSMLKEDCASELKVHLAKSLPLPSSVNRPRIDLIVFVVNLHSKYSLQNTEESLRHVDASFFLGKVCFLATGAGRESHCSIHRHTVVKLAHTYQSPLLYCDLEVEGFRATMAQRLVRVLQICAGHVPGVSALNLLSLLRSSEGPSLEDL
UniProt O94986: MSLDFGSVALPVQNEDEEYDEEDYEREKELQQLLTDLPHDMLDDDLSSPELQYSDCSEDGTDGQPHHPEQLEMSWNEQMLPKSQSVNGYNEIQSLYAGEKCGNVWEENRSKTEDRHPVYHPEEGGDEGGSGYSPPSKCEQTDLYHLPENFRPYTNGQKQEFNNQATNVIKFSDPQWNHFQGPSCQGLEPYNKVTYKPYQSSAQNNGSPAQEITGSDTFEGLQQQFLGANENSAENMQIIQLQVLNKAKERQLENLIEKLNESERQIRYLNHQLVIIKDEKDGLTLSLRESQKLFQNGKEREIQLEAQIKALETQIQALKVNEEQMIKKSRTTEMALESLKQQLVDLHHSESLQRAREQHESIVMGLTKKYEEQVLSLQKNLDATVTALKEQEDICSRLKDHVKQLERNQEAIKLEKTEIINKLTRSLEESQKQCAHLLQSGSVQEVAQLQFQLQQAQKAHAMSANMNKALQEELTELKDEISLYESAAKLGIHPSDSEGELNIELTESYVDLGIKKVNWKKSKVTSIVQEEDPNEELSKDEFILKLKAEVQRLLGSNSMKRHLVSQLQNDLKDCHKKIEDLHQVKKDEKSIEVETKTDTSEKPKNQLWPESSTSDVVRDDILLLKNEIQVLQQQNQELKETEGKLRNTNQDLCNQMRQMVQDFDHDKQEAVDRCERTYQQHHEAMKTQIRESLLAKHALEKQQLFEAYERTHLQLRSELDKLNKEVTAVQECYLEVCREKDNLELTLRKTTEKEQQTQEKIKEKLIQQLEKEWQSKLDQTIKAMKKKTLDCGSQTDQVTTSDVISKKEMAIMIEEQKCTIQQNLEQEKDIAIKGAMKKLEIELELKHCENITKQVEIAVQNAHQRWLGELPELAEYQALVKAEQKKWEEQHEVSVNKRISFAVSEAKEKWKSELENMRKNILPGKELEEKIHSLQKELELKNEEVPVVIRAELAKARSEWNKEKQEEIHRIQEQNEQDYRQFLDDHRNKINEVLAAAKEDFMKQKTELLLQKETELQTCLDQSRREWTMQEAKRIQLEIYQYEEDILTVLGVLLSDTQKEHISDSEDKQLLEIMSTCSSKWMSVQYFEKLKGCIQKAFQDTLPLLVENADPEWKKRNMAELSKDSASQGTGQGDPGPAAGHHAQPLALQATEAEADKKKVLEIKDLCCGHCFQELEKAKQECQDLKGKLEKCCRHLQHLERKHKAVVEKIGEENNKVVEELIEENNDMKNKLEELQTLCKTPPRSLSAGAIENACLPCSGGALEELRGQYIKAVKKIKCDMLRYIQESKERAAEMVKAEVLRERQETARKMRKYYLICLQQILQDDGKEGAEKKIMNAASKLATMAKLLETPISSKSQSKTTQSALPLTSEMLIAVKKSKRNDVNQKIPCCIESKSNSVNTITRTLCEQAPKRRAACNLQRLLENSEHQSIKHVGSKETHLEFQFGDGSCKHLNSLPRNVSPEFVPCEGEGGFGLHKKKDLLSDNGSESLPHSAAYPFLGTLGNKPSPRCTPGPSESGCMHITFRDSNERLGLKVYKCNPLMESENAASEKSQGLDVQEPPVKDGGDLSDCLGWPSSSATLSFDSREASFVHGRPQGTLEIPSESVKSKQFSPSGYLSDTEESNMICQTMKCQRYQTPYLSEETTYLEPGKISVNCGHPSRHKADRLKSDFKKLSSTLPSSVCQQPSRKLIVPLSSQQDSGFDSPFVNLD
UniProt Q69YH5: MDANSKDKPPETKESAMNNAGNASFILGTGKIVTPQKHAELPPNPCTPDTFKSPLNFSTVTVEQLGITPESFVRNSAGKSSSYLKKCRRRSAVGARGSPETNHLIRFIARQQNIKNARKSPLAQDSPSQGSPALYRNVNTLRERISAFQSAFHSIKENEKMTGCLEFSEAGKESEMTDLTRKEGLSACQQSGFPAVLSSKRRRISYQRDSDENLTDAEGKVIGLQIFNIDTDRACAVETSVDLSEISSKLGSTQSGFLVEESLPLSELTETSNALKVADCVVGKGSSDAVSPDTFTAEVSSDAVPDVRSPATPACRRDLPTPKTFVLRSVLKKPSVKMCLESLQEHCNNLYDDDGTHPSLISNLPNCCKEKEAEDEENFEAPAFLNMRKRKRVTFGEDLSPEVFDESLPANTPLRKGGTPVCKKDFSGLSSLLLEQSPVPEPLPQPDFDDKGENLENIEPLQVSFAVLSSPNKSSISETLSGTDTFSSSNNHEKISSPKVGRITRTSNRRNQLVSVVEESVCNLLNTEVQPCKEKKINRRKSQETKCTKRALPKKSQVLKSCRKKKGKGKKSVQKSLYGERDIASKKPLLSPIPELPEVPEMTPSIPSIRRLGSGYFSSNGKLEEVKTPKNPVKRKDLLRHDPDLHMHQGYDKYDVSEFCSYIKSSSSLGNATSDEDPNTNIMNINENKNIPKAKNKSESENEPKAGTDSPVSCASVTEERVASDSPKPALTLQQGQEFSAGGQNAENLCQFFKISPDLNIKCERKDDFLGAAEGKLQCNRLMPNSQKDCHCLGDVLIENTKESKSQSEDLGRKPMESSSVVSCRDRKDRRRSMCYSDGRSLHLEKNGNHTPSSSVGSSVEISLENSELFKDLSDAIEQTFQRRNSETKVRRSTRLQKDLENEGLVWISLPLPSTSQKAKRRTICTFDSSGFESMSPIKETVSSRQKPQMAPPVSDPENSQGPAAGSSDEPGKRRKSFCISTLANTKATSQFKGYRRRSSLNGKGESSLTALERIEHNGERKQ
UniProt Q01850: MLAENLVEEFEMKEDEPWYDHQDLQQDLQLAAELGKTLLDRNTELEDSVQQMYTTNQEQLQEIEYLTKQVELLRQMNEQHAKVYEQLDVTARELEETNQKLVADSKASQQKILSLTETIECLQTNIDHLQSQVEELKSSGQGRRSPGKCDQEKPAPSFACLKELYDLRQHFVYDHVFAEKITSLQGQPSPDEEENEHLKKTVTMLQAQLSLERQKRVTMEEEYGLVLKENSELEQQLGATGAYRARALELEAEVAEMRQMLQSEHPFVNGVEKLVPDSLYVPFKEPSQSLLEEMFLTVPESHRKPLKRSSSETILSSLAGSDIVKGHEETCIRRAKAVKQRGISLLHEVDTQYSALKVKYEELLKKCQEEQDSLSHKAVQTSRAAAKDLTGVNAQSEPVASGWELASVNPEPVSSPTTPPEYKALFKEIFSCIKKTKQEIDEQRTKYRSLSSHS
UniProt P25942, whole entry, looked up: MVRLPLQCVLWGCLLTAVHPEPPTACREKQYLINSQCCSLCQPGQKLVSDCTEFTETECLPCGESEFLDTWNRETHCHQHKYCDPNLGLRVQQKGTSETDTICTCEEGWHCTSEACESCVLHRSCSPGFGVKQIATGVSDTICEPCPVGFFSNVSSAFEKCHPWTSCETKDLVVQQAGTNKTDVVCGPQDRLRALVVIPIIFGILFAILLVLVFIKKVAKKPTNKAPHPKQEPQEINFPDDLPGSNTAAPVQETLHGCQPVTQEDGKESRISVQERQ
UniProt P60953, whole entry, looked up: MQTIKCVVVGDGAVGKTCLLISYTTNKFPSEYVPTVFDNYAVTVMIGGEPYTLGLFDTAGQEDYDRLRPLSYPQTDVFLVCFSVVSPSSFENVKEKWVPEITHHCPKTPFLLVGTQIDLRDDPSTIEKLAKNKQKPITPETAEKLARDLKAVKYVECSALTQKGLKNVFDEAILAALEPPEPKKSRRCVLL
UniProt P42773: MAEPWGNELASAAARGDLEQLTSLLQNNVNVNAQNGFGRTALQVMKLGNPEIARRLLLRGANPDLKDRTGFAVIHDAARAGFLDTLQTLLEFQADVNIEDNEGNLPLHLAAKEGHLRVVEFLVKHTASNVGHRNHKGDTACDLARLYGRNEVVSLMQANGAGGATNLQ
UniProt P49336: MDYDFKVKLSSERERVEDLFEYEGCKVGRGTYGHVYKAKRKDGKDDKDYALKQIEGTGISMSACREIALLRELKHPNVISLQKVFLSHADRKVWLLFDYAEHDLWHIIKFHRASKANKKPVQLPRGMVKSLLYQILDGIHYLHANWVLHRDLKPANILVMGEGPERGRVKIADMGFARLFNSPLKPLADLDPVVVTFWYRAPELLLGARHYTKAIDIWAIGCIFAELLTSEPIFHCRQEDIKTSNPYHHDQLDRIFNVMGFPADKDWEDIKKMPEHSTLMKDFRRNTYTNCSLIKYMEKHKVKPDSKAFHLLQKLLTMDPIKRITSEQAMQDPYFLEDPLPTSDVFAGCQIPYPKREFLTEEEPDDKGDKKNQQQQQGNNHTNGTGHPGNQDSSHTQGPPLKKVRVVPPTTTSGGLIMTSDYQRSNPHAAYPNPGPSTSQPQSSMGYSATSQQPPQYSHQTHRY
UniProt P32970: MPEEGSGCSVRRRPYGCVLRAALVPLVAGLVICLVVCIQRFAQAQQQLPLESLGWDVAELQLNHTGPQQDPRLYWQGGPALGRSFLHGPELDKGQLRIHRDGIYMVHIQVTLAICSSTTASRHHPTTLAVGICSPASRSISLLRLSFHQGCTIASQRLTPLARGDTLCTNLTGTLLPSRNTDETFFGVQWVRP
UniProt P23528, whole entry, looked up: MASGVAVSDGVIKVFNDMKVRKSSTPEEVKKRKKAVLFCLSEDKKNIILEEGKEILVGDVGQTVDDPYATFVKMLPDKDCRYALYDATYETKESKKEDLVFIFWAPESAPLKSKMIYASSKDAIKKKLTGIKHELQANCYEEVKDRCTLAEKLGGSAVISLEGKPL

Compound: Cc1cc(ccc1-c1ccccc1)C(=O)N1CCCN(CC1)C(=O)CCl [compound 10]
Assay: probe-labelled cysteine peptide fold change vs DMSO (competition) (log2 fold change); higher = less target engagement (more negative = stronger competition)
Settings: THP-1, incubation time: 4 h
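Further: competitive profiling in live THP-1 cells: cysteine peptides tagged with an iodoacetamide desthiobiotin (IA-DTB) probe, intensity after compound treatment relative to DMSO-treated cells.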

Target | probe-labelled cysteine peptide fold change (10 µM) | probe-labelled cysteine peptide fold change (50 µM)
CENPF_P49454_339_CRDELVR (UniProt P49454) | 0.481 | 0.506
CENPC_Q03188_612_CSLSEPLESDEADLAK (UniProt Q03188) | -0.164 | 0.0777
CENPI_Q92674_332_EMSLSDCLNR (UniProt Q92674) | -0.0675 | -0.367
CDC27_P30260_115_SHDDIVTEFGDSACFTLSLLGHVYCK (UniProt P30260) | 0.151 | 0.0274
CENPM_Q9NSP4_98_VCFLATGAGR (UniProt Q9NSP4) | -0.175 | 0.132
CEP192_Q8TEP8_1828_LTSNCEIR (UniProt Q8TEP8) | 0.121 | 0.145
CEP152_O94986_1167_DLCCGHCFQELEK (UniProt O94986) | -0.165 | -0.6
CDCA2_Q69YH5_315_SPATPACR (UniProt Q69YH5) | -0.123 | -0.761
CDR2_Q01850_432_EIFSCIK (UniProt Q01850) | 0.0698 | 0.087
CDC27_P30260_126_SHDDIVTEFGDSACFTLSLLGHVYCK (UniProt P30260) | 0.124 | -0.077
CEBPZ_Q03701_374_ALTVAHELLCNKPEEEK (UniProt Q03701) | 0.0237 | -0.0494
CENPU_Q71F23_239_AIGSDTSDIVHIWCPEGMK (UniProt Q71F23) | -0.159 | -0.255
CDCA2_Q69YH5_790_DCHCLGDVLIENTK (UniProt Q69YH5) | -0.209 | -0.376
CDK11B_P21127_440_SVEEFQCLNR (UniProt P21127) | -0.225 | -0.28
CDC27_P30260_673_ALDINPQSSVLLCHIGVVQHALK (UniProt P30260) | 0.136 | 0.0245
CCT8_P50990_136_IGLSVSEVIEGYEIACRK (UniProt P50990) | 0.418 | -0.115
CD40_P25942_186_TDVVCGPQDR (UniProt P25942) | -0.371 | 0.303
CDC42_P60953_157_YVECSALTQK (UniProt P60953) | 0.0457 | 0.0315
CENPP_Q6IPU0_147_LSSAVTDLNIIMEPTECSELSEFVSR (UniProt Q6IPU0) | -0.118 | 0.107

Target | probe-labelled cysteine peptide fold change (10 µM) | probe-labelled cysteine peptide fold change (50 µM)
CEPT1_Q9Y6K0_11+30_CGDSHPESPVGFGHMSTTGCVLNK (UniProt Q9Y6K0) | -1.98 | -2.17
CDKN2C_P42773_141_GDTACDLAR (UniProt P42773) | 0.194 | 0.0643
CELF2_O95319_161_VMFSPFGQIEECR (UniProt O95319) | 0.0611 | -0.0177
CES1_P23141_116_LSEDCLYLNIYTPADLTK (UniProt P23141) | 0.146 | 0.347
CDK6_Q00534_15_ADQQYECVAEIGEGAYGK (UniProt Q00534) | -0.178 | 0.0606
CEP350_Q5VT06_3083_VDHILVQELHEEEAQWVNYDEDELCVK (UniProt Q5VT06) | -0.235 | 0.105
CFAP298_P57076_45_LCSEMEELAEHGIFLPPNMQGLTDDQIEELK (UniProt P57076) | 0.268 | 0.46
CDK8_P49336_25_VEDLFEYEGCK (UniProt P49336) | 0.0232 | -0.0925
CD40_P25942_111_GTSETDTICTCEEGWHCTSEACESCVLHR (UniProt P25942) | 0.163 | 0.149
CENPL_Q8N0S6_286_TPGEVTQEEVDLFMDCLYSHFHR (UniProt Q8N0S6) | -0.289 | -0.126
CDK16_Q00536_206_EIRLEHEEGAPCTAIR (UniProt Q00536) | -0.185 | -0.768
CERS5_Q8N5B7_369_SPCDSSSSNGANR (UniProt Q8N5B7) | -0.115 | -0.159
CCT7_Q99832_310_DMFCAGR (UniProt Q99832) | 0.0172 | 0.102
CD70_P32970_151_LSFHQGCTIASQR (UniProt P32970) | -0.0511 | 0.0696
CDC37L1_Q7L3B6_190_FLSDHPYLVCEETAK (UniProt Q7L3B6) | -0.0727 | 0.207
CCT6A_P40227_406_NAIDDGCVVPGAGAVEVAMAEALIK (UniProt P40227) | -0.0356 | 0.0935
CEP192_Q8TEP8_2335_CSPISGLLESHGIQK (UniProt Q8TEP8) | 0.0613 | 0.151
CDK5_Q00535_117_GLGFCHSR (UniProt Q00535) | 0.00449 | 0.158
CFL1_P23528_139_HELQANCYEEVKDR (UniProt P23528) | -0.0334 | -0.132

Reformatted: entries from further up.

| Target | probe-labelled cysteine peptide fold change (10 µM) | probe-labelled cysteine peptide fold change (50 µM) |
| --- | --- | --- |
| CDC27_P30260_115_SHDDIVTEFGDSACFTLSLLGHVYCK (UniProt P30260) | 0.151 | 0.0274 |
| CENPM_Q9NSP4_98_VCFLATGAGR (UniProt Q9NSP4) | -0.175 | 0.132 |
| CEP192_Q8TEP8_1828_LTSNCEIR (UniProt Q8TEP8) | 0.121 | 0.145 |
| CEP152_O94986_1167_DLCCGHCFQELEK (UniProt O94986) | -0.165 | -0.6 |
| CDCA2_Q69YH5_315_SPATPACR (UniProt Q69YH5) | -0.123 | -0.761 |
| CDR2_Q01850_432_EIFSCIK (UniProt Q01850) | 0.0698 | 0.087 |
| CDC27_P30260_126_SHDDIVTEFGDSACFTLSLLGHVYCK (UniProt P30260) | 0.124 | -0.077 |
